# The list shows a part of the results, in another mix than the full data. For part of these data: At the low end of the ranking the order means little. The list shows a part of the results. For part of these data: The exact form of the protein is not confirmed.
# Protein sequences, listed by entry. Tags and fused reporters are not part of them. Lines headed by an entry give the natural chain unless they say otherwise; changes in a name come on top.
# UniProt P32519: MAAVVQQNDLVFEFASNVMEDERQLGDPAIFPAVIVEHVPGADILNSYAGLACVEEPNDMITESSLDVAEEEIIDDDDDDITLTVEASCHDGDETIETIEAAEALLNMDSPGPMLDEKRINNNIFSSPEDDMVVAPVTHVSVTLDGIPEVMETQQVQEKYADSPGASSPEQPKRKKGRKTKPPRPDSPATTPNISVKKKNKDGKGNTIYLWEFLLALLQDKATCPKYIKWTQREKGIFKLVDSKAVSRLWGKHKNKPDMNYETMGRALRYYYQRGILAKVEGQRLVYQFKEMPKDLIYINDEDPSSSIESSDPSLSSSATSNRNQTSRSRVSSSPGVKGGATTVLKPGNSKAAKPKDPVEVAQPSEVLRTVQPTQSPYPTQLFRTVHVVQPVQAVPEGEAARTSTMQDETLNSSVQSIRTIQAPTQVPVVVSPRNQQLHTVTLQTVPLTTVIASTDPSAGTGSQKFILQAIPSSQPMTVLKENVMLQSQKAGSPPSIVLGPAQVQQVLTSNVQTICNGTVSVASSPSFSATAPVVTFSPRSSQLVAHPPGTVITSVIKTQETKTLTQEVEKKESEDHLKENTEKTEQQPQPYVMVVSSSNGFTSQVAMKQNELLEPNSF
# UniProt P50549: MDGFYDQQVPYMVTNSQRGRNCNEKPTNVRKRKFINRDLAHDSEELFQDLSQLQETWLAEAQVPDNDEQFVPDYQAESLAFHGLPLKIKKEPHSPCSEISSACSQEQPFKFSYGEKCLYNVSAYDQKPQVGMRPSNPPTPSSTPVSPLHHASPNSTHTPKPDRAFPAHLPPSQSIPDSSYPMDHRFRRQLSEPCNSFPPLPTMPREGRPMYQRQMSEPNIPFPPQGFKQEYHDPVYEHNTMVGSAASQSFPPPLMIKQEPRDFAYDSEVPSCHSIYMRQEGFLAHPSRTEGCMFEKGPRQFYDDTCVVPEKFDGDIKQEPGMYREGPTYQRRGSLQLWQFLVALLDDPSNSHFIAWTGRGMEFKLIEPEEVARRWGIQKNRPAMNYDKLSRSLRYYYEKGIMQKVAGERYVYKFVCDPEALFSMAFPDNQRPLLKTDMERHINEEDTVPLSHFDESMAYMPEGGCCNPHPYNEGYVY
# Biological target: ELF1 (UniProt P32519)
# Experiment: DAPPL (digital affinity profiling via proximity ligation, sequencing)
# Conditions: 10 mM Tris-HCl pH 7.5, 50 mM NaCl, 1 mM DTT, 4% glycerol, room temperature, 30 min; GST-TFs on glutathione beads, 16-mer random dsDNA library, 0.1% …; high values mean tight binding; double strand, one strand shown; scale: fold enrichment (6-mer frequency, TF over GST control)
row,Sequence,binding signal
1,TGACTC,1.36
2,TTCTCC,1.56
3,TCGAAT,1.11
4,TTCTGC,1.52
5,GCTTTG,1.14
6,CGACGA,1.09
7,AACGAC,1.09
8,TGTGTT,1.03
9,AGCTAC,1.15
10,ATCTTC,1.64
11,ATGTAT,1.3
12,CTCAGA,1.14
13,GCTCGC,1.42
14,CCGATG,0.989
15,TAGTCC,1.15

# Biological target: T1, ETV4 (UniProt P43268)
# T1 sequence: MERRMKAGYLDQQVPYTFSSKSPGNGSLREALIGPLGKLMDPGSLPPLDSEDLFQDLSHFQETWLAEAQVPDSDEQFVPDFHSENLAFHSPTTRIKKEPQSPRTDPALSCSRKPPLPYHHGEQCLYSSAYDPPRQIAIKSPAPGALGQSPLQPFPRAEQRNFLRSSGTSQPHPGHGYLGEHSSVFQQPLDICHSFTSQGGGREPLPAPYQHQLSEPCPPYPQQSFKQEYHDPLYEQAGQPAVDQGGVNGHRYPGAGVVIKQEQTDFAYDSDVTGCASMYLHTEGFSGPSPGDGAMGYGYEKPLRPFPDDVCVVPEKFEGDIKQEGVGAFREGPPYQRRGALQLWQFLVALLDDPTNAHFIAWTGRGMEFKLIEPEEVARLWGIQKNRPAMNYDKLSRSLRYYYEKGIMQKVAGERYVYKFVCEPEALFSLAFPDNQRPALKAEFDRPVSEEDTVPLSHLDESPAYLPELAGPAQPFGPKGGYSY
# Experiment: as above
# Conditions: 10 mM Tris-HCl pH 7.5, 50 mM NaCl, 1 mM DTT, 4% glycerol, room temperature, 30 min; GST-TFs on glutathione beads, 16-mer random dsDNA library, 0.1% …; high values mean tight binding; double strand, one strand shown; scale: fold enrichment (6-mer frequency, TF over GST control)
row,Sequence,binding signal
1,AATGAT,1.14
2,TTTTCA,1.16
3,TGACTC,1.34
4,TTCCCT,1.66
5,CTAGTT,1.36
6,ACATCA,1.18
7,TTCTCC,1.59
8,AAAAGC,1.2
9,TCGAAT,1.04
10,TTCTGC,1.45
11,GCTTTG,1.21
12,TCACGA,1.11
13,GTCCAC,1.07
14,CGCTAG,1.1
15,CCTCTT,1.65
16,GTCACA,1.05
17,CGACGA,1.24
18,TGCAAC,1.4
19,AACGAC,1.13
20,TATGGT,1.32

row,Sequence,binding signal
1,CCATGC,1.04
2,TAATAA,1.19
3,CAAGGT,1.02
4,TGATCT,1.36
5,TGTGTT,1.04
6,AATCGA,0.967
7,AGCTAC,1.19
8,ATCTTC,1.6
9,CGTTCG,1.18
10,ATGTAT,1.3
11,CTCAGA,1.14
12,GCTCGC,1.32
13,GCTACC,1.21
14,CCGATG,1.09
15,GTGCTT,1.38
16,TTCCTT,1.76
17,AACATA,1.29
18,TGCCAA,1.13
19,CCCCGG,1.23
20,TAGTCC,1.14

# Biological target: ETV1 (UniProt P50549)
# Experiment: as above
# Conditions: 10 mM Tris-HCl pH 7.5, 50 mM NaCl, 1 mM DTT, 4% glycerol, room temperature, 30 min; GST-TFs on glutathione beads, 16-mer random dsDNA library, 0.1% …; high values mean tight binding; double strand, one strand shown; scale: fold enrichment (6-mer frequency, TF over GST control)
row,Sequence,binding signal
1,AATGAT,1.07
2,TTTTCA,1.22
3,TGACTC,1.33
4,TTCCCT,1.68
5,CTAGTT,1.35
6,ACATCA,1.15
7,TTCTCC,1.45
8,AAAAGC,1.19
9,TCGAAT,1
10,TTCTGC,1.45
11,GCTTTG,1.16
12,TCACGA,1.13
13,GTCCAC,0.946
14,CGCTAG,1.03
15,CCTCTT,1.55
16,GTCACA,1.06
17,CGACGA,1.07
18,TGCAAC,1.4
19,AACGAC,1.15
20,TATGGT,1.27

row,Sequence,binding signal
1,CCATGC,0.949
2,TAATAA,1.12
3,CAAGGT,1.13
4,TGATCT,1.2
5,TGTGTT,0.965
6,AATCGA,0.989
7,AGCTAC,1.21
8,ATCTTC,1.63
9,CGTTCG,1.19
10,ATGTAT,1.42
11,CTCAGA,1.1
12,GCTCGC,1.37
13,GCTACC,1.26
14,CCGATG,1.1
15,GTGCTT,1.16
16,TTCCTT,2.04
17,AACATA,1.21
18,TGCCAA,0.962
19,CCCCGG,1.29
20,TAGTCC,1.1

# Biological target: T2, ERF (UniProt P50548)
# T2 sequence: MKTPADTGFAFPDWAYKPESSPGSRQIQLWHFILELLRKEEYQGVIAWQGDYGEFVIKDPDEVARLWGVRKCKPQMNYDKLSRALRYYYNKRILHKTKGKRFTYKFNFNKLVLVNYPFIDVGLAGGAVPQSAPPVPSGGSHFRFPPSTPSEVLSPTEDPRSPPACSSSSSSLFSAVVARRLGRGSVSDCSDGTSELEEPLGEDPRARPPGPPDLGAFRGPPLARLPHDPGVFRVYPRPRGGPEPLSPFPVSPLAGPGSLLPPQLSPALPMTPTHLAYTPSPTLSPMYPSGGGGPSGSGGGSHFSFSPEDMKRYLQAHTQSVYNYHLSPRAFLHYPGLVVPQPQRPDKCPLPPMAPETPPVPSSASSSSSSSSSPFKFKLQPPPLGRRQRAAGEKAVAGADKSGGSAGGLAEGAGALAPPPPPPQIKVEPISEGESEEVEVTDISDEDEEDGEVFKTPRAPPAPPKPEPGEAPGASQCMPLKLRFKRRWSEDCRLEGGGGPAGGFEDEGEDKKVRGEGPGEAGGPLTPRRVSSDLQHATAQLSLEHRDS
# Experiment: as above
# Conditions: 10 mM Tris-HCl pH 7.5, 50 mM NaCl, 1 mM DTT, 4% glycerol, room temperature, 30 min; GST-TFs on glutathione beads, 16-mer random dsDNA library, 0.1% …; high values mean tight binding; double strand, one strand shown; scale: fold enrichment (6-mer frequency, TF over GST control)
row,Sequence,binding signal
1,AATGAT,1.18
2,TTTTCA,1.24
3,TTCCCT,1.58
4,CTAGTT,1.34
5,ACATCA,1.13
6,AAAAGC,1.15
7,GCTTTG,1.09
8,TCACGA,1.14
9,GTCCAC,1.07
10,CGCTAG,1.08
11,CCTCTT,1.59
12,GTCACA,1.11
13,CGACGA,1.12
14,TGCAAC,1.31
15,TATGGT,1.18
16,CCATGC,1.01

row,Sequence,binding signal
1,TAATAA,1.28
2,CAAGGT,0.954
3,TGATCT,1.35
4,AATCGA,0.963
5,AGCTAC,1.25
6,ATCTTC,1.45
7,CGTTCG,1.52
8,GCTACC,1.31
9,CCGATG,1.1
10,GTGCTT,1.26
11,TTCCTT,1.77
12,AACATA,1.32
13,TGCCAA,1.15
14,CCCCGG,1.34
15,TAGTCC,0.98

# Source: paper PMC7862700
